The text below walks through data of article doi:10.1101/572826.

No constants are given. Whether binding was seen depends on the method and setting. For some assays here: In cells and extracts the contact can be indirect. Some results given as binding are weak or reduced against the parent protein; the word gives no strength. Sequences can lack the tags named with a protein.

In test [1] the target is T1, AtEDS1-3xFLAG (pEDS1:gEDS1-3xFLAG) (Arabidopsis thaliana (Col)) (UniProt Q9XF23).
T1 sequence: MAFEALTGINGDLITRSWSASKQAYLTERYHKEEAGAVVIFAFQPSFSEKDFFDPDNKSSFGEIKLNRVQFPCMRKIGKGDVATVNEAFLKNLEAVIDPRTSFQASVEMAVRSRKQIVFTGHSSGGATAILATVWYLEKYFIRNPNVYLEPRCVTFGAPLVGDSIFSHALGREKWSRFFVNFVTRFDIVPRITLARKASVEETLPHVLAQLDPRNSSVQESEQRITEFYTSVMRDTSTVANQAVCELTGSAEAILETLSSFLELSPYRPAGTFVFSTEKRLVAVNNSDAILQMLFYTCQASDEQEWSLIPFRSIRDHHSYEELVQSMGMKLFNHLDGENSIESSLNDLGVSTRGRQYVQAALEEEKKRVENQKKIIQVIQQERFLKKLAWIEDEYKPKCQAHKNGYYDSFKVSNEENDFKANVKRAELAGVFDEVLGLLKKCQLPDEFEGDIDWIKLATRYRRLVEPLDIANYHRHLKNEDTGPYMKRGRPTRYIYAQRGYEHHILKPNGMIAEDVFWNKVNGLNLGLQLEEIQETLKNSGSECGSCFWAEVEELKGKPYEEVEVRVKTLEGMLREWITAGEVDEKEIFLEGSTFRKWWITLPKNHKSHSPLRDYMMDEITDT
The test is described as follows: co-IP.

The target of test [2] is T2, Arabidopsis PAD4 (AtPAD4), LexA BD fusion for yeast two-hybrid (Arabidopsis thaliana (Col)) (UniProt Q9S745).
T2 sequence: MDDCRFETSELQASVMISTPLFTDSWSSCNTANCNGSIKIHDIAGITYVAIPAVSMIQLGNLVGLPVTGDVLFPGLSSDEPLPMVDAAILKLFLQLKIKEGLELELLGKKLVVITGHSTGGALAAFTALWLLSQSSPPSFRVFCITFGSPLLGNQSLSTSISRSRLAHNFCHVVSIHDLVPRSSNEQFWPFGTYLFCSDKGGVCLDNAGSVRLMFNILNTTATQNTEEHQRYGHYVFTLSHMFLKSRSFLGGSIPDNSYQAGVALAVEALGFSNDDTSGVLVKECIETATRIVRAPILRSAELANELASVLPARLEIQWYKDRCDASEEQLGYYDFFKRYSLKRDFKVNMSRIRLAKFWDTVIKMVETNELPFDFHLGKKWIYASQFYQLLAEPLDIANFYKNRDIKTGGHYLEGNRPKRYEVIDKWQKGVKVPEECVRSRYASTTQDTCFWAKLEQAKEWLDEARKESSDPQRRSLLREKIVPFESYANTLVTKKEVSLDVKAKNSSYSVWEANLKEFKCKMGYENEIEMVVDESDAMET
The experiment in a line: two-hybrid.

B1: AtPAD4-YFP (35S:AtPAD4-YFP) (protein, UniProt Q9S745 1-541)
chain: T2 sequence
Regarding B1, the binding result in test [1] was “binds”.

B2: Arabidopsis EDS1 (AtEDS1), Gal4 AD fusion for yeast two-hybrid (protein, UniProt Q9XF23 1-623)
chain: T1 sequence
Regarding B2, in test [2], the binding entry is listed as “binds”.
